In assay [1] the target is Human far upstream element (FUSE) binding protein 1 (human (endogenous in HCT116)) (UniProt Q96AE4). Description: co-IP; Triton X-100 lysate of about 5 x 10^7 cells; rabbit anti-FUBP1 polyclonal antibody on protein A beads cross-linked with DSS; western blotting; reciprocal precipitation by c-Myc; IgG control. In general terms: A western blot detects proteins with antibodies after separation by electrophoresis.

By UniProt entry, the sequences of proteins in these tests, tags left out.
UniProt Q96AE4: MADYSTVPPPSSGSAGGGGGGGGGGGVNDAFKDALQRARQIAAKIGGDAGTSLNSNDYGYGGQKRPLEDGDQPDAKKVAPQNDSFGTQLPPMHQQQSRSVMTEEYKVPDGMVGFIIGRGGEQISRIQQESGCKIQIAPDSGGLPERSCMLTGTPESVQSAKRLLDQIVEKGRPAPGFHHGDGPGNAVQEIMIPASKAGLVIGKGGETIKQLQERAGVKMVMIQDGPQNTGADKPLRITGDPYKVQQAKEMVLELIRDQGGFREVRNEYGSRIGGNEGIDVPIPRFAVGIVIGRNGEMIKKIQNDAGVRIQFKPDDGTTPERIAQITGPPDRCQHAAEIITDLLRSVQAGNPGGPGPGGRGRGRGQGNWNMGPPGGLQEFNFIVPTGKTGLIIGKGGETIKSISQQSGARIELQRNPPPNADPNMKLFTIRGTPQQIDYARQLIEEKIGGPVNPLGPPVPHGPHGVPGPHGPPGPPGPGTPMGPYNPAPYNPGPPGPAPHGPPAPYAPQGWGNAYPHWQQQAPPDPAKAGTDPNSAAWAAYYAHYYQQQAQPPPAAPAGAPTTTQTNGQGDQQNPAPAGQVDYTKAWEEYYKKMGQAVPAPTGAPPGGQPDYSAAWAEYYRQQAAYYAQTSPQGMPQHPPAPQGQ
UniProt P01106: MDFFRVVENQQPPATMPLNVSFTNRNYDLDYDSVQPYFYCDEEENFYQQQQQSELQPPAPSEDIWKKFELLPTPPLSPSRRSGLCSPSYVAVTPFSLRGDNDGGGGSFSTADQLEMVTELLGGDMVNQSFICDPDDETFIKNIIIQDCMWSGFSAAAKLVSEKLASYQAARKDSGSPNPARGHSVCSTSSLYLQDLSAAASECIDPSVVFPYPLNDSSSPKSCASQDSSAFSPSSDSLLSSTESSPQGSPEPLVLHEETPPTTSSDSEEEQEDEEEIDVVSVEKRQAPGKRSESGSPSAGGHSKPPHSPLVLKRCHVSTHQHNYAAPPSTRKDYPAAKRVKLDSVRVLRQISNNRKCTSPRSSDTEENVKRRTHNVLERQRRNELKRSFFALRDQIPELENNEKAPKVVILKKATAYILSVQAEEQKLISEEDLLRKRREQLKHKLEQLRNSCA

Assay [2] concerns the target c-Myc (human (endogenous in HCT116)) (UniProt P01106). Described as above.

These are yes or no findings as the source states them, for the method shown. Binding seen in cells or lysates may run through a third protein. Some entries that bind do so weakly or less than the wild type.

On to c-Myc (from UniProt P01106 1-454), for which, in assay [1], the binding result is reported as “binds”. Consider “Human far upstream element (FUSE) binding protein 1 (from UniProt Q96AE4 1-644)”, for which, in assay [2], the binding entry is reported as “binds”.

Values taken from publication PMC9276009.
